Measurements reported in patent publication US7687477B2, “Polymer solution and dispersion and a process for the preparation thereof” (Valtion Teknillinen Tutkimuskeskus, priority 2002, dated 2010).
At least one read-out could not be matched to a standard name with certainty.

Experiment: Drug penetrability of starch acetate dispersion films, side-by-side diffusion chambers
Assay type: physicochemical
Conditions: buffer pH 7.5
[1] = SA dispersion film plasticized with TEC-OSA mixture about 1:1 (Example 4d), no cross-linking
[2] = SA dispersion film plasticized with triacetin (Example 4e), PVA cross-linked with glutaric dialdehyde (42% of PVA mass)

Compound	Permeability coefficient [1]	Permeability coefficient [2]
OC[C@@H](O)[C@@H](O)[C@H](O)[C@H](O)CO [mannitol]	8.18±0.55*10^−7 cm^2/s	0.70±0.80*10^−7 cm^2/s
CC(C)NCC(O)COc1cccc2ccccc12 (stereo not shown) [propranolol]	6.34±0.77*10^−7 cm^2/s	1.95±1.19*10^−7 cm^2/s
